Data published in article PMC11806767.
These are yes or no findings as the source states them, for the method shown. In cells and extracts the contact can be indirect. Some entries that bind do so weakly or less than the wild type. Tags and fused reporters may be left off the sequences shown.

Protein sequences, listed by entry. Tags and fused reporters are not part of them.
UniProt Q92176: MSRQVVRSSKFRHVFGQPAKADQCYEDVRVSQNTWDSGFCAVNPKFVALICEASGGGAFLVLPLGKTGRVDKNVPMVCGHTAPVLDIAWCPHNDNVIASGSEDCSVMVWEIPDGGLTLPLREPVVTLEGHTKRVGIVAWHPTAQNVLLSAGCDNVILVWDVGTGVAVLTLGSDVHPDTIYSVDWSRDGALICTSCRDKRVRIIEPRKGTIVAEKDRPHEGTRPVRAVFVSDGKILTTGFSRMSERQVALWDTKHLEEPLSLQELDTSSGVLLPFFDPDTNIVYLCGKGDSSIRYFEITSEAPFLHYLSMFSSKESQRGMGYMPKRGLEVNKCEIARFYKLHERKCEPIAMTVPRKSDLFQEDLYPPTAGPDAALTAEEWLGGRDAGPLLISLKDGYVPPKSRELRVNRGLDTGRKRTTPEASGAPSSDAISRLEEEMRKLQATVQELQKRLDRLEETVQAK

Molecular target: T1, mycobacterial lipoamide dehydrogenase C (LpdC), BiFC fusion (Mycobacterium tuberculosis) (UniProt P9WHH9)
T1 sequence: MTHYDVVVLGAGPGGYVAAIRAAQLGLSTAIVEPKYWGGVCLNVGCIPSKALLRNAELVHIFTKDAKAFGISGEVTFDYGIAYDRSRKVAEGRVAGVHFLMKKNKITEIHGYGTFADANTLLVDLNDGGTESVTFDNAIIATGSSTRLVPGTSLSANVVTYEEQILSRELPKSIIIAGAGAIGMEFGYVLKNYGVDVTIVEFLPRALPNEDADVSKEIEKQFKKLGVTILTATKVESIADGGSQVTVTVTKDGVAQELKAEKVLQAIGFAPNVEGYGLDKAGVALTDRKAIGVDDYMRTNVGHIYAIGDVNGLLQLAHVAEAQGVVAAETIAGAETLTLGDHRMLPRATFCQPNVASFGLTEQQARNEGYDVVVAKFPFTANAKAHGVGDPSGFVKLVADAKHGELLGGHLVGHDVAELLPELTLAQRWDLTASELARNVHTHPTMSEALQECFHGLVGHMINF
Test: split reporter

For “bovine Coronin-1A, BiFC fusion (from UniProt Q92176 1-461)”, the binding was “binds”.
